{"source": "PubChem BioAssay AID1259308 (NCATS, 2017)", "test": "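Knock-downs that increase output of a recombinant reporter protein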 (primary screen)", "cell system": "human HEK293 embryonic kidney cells stably expressing firefly luciferase (HEK-CMV-Luc2-Hygro)", "reagent": "single siRNA against human genes, 0.8 pmol siRNA per well", "timing": "72 h", "detection": "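Luciferase light (ONE-Glo) measured on one replicate plate set and viability (CellTiter-Glo) on the other, scaled to a negative control siRNA, with robust z-scores and luciferase per cell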", "scale": "total luciferase, z-score: higher = more reporter protein produced", "rule for the call": "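An siRNA counts as active if its total luciferase robust z-score exceeds 3; genes with two or more such siRNAs out of three were retested with fresh siRNAs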", "calls": "active = raised luciferase; inactive = no rise", "note": "The deposit covers about 59,000 reagents; below is a part drawn at random. In the full data, about 1,510 (2.6%) were called active. 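Calls use total luciferase alone and ignore viability, so some active siRNAs may act by altering cell number.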 The numbers tell different reagents against one gene apart. Not all columns of the deposit are shown. Reagent sequences are not shown."}
{"target gene": "LRRTM4 (leucine rich repeat transmembrane neuronal 4)", "reagent": 1, "total luciferase, z-score": 0.211, "Call": "inactive"}
{"target gene": "LRRTM4 (leucine rich repeat transmembrane neuronal 4)", "reagent": 2, "total luciferase, z-score": -1.16, "Call": "inactive"}
{"target gene": "LRRTM4 (leucine rich repeat transmembrane neuronal 4)", "reagent": 3, "total luciferase, z-score": -0.422, "Call": "inactive"}
{"target gene": "PPP1R13L (protein phosphatase 1 regulatory subunit 13 like)", "reagent": 1, "total luciferase, z-score": 7.22, "Call": "active"}
{"target gene": "PPP1R13L (protein phosphatase 1 regulatory subunit 13 like)", "reagent": 2, "total luciferase, z-score": 0.188, "Call": "inactive"}
{"target gene": "PPP1R13L (protein phosphatase 1 regulatory subunit 13 like)", "reagent": 3, "total luciferase, z-score": 1.33, "Call": "inactive"}
{"target gene": "OR2AK2 (olfactory receptor family 2 subfamily AK member 2)", "reagent": 1, "total luciferase, z-score": -0.761, "Call": "inactive"}
{"target gene": "OR2AK2 (olfactory receptor family 2 subfamily AK member 2)", "reagent": 2, "total luciferase, z-score": -0.227, "Call": "inactive"}
{"target gene": "OR2AK2 (olfactory receptor family 2 subfamily AK member 2)", "reagent": 3, "total luciferase, z-score": -0.142, "Call": "inactive"}
{"target gene": "IFT20 (intraflagellar transport 20)", "reagent": 1, "total luciferase, z-score": 0.393, "Call": "inactive"}
{"target gene": "IFT20 (intraflagellar transport 20)", "reagent": 2, "total luciferase, z-score": -0.915, "Call": "inactive"}
{"target gene": "IFT20 (intraflagellar transport 20)", "reagent": 3, "total luciferase, z-score": -0.873, "Call": "inactive"}

Taken from above:
Under “total luciferase, z-score”, OR2AK2 (olfactory receptor family 2 subfamily AK member 2) #2 is entered as -0.227
IFT20 (intraflagellar transport 20) #1, Call: inactive
Under “total luciferase, z-score”, IFT20 (intraflagellar transport 20) #3 shows -0.873
LRRTM4 (leucine rich repeat transmembrane neuronal 4) #3, total luciferase, z-score → -0.422
Entry of PPP1R13L (protein phosphatase 1 regulatory subunit 13 like) #2 under “Call”: inactive

The list goes on:
{"target gene": "TRPT1 (tRNA phosphotransferase 1)", "reagent": 1, "total luciferase, z-score": -0.00325, "Call": "inactive"}
{"target gene": "TRPT1 (tRNA phosphotransferase 1)", "reagent": 2, "total luciferase, z-score": -0.971, "Call": "inactive"}
{"target gene": "TRPT1 (tRNA phosphotransferase 1)", "reagent": 3, "total luciferase, z-score": -0.596, "Call": "inactive"}
{"target gene": "SEC63 (SEC63 protein translocation regulator)", "reagent": 1, "total luciferase, z-score": 0.983, "Call": "inactive"}
{"target gene": "SEC63 (SEC63 protein translocation regulator)", "reagent": 2, "total luciferase, z-score": -1.56, "Call": "inactive"}
{"target gene": "SEC63 (SEC63 protein translocation regulator)", "reagent": 3, "total luciferase, z-score": 0.431, "Call": "inactive"}
{"target gene": "PRR23A (proline rich 23A)", "reagent": 1, "total luciferase, z-score": 0.0203, "Call": "inactive"}
{"target gene": "PRR23A (proline rich 23A)", "reagent": 2, "total luciferase, z-score": 0.131, "Call": "inactive"}
{"target gene": "PRR23A (proline rich 23A)", "reagent": 3, "total luciferase, z-score": 0.213, "Call": "inactive"}
{"target gene": "TNNT2 (troponin T2, cardiac type)", "reagent": 1, "total luciferase, z-score": -0.64, "Call": "inactive"}
{"target gene": "TNNT2 (troponin T2, cardiac type)", "reagent": 2, "total luciferase, z-score": 1.24, "Call": "inactive"}
{"target gene": "TNNT2 (troponin T2, cardiac type)", "reagent": 3, "total luciferase, z-score": 0.428, "Call": "inactive"}
{"target gene": "ZNF22 (zinc finger protein 22)", "reagent": 1, "total luciferase, z-score": 0.131, "Call": "inactive"}
{"target gene": "ZNF22 (zinc finger protein 22)", "reagent": 2, "total luciferase, z-score": 1.88, "Call": "inactive"}
{"target gene": "ZNF22 (zinc finger protein 22)", "reagent": 3, "total luciferase, z-score": -0.168, "Call": "inactive"}
{"target gene": "MASTL (microtubule associated serine/threonine kinase like)", "reagent": 1, "total luciferase, z-score": -0.98, "Call": "inactive"}
{"target gene": "MASTL (microtubule associated serine/threonine kinase like)", "reagent": 2, "total luciferase, z-score": -0.726, "Call": "inactive"}
{"target gene": "MASTL (microtubule associated serine/threonine kinase like)", "reagent": 3, "total luciferase, z-score": -0.537, "Call": "inactive"}
{"target gene": "ZNRF4 (zinc and ring finger 4)", "reagent": 1, "total luciferase, z-score": -2.58, "Call": "inactive"}
{"target gene": "ZNRF4 (zinc and ring finger 4)", "reagent": 2, "total luciferase, z-score": -0.736, "Call": "inactive"}
{"target gene": "ZNRF4 (zinc and ring finger 4)", "reagent": 3, "total luciferase, z-score": 4.45, "Call": "active"}
